Data reported in US20070166719A1 (NEW ENGLAND BIOLABS, published 2007).

Tested on: CspCI (R-M-CspCI / S-CspCI heterodimer) (Citrobacter sp. 2144 (NEB#1398))
Experiment: enzyme reaction in vitro
Conditions: NEBuffer 2, AdoMet, 37 C, purified recombinant protein, only the site is given

Row | Sequence | activity on this sequence (cleavage 11/13 CAA N5 GTGG 12/10) | activity on this sequence (cleavage 10/12 CAA N5 GTGG 13/11)
1 | AGTGCCACCTGACGTGCAACCTAGGTGGCACGTCTAAGAAACC (double strand) [pUC1CspC-4 CspCI site] | active | –
2 | AGTGCCACCTGACGTGCCACCCGGGTTGCACGTCTAAGAAACC (double strand) [pUC1CspC-1 CspCI site] | – | active
